In patent US8258173B2, “Melatonin derivatives and their use as antioxidants” (University of Sunderland, priority 2006, dated 2012):
Some entries share one result that the patent states for a list of compounds.

Tested on: lipid peroxidation in bovine brain extract liposomes (hydroxyl radicals)
Assay: Antioxidant test, TBA assay (lipid peroxidation)
Assay type: biochemical
Conditions: FeCl3/ascorbic acid, 37° C. 30 min, absorbance 532 nm
Protocol: Ascorbic acid and propylgallate were purchased from Aldrich. N-Butanol and ethanol were purchased from BDH. Butylated hydroxytoluene (BHT), bovine brain extract, FeCl3, thiobarbituric acid (TBA) and PBS (phosphate buffered saline) tablets were purchased from Sigma. For spectroscopic measurements, a UNICAM UVNIS Spectrometer (UV2) was used. A well-controlled water bath was utilized for incubating the test system at the required temperatures. Plastic falcon tubes were used to accommodate the assay. Accurate pipettes were used to dispense the reagents.
The following liposomes and reagents were prepared in order to carry out the experiments. • 1. Brain extract (50 mg) was weighed into a clean universal container. About 7 glass balls and 10 cm^3 of PBS were added. The mixture was sonicated in an ice-water bath until the lipid was suspended and the suspension was homogeneous and milky in appearance. The suspension was kept cool during the sonication, although care was taken not to overfill the bath with ice as the sonication becomes relatively ineffective. • 2. […]
Sixty-eight centrifuge tubes were numbered. • 1. […] Absorbance at 532 nm on a spectrophotometer was recorded, using n-butanol as blank. • 16. The mean and standard deviation were calculated. The % inhibition was calculated using equation (1). […]

Row | SMILES | IC50 (listed as 4,5-dimethoxytryptamine) [µM] | IC50 (listed as 4-(2′-aminoethyl}-5,7-dimethoxyindole)) [µM]
1 | COc1ccc2[nH]cc(CCN)c2c1OC [4,5-Dimethoxytryptamine] | < 100 | –
2 | COc1cc(OC)c2[nH]ccc2c1CCN [4-(2-Aminoethyl)-5,7-dimethoxyindole] | – | < 100
